Results on 18 molecules are retold here after PMC12431657, “Discovery and mechanistic insights of dibenzoylmethane as a broad spectrum inhibitor of coronavirus” (PLOS Pathogens, 2025).

In the experiment the test system is HCoV-229E. Also on record: species or system Huh-7; HTS, protection from HCoV-229E induced cell death, luminescent cell viability (CellCounting-Lite 2.0), inhibition rate. The settings on record: 24 h post infection, 1 h compound pre-incubation, 10 µM, inhibitor.

Where a name gives a salt, the structure may show the parent alone. Read-outs that look alike come from different tables or passages of the source. In all, about 3,300 compounds went through this assay and about 95 (3%) showed an effect of 50% or more. The list shows a part of the results.

As for `C/C=C/c1ccc(O)c(OC)c1` [Isoeugenol], the “229E Inhibition rate” value was determined as 10.1%.
`COc1cc(C(C)=O)cc(OC)c1O` [Acetosyringone]: the “229E Inhibition rate” value amounted to 18.9%.
Turning to `C[C@H](CC(=O)O)[C@H]1CC[C@H]2[C@@H]3[C@H](O)C[C@@H]4C[C@H](O)CC[C@]4(C)[C@H]3C[C@H](O)[C@]12C` [Norcholic acid], the “229E Inhibition rate” value is reported as 0%.
On to `CCC(O)CC` [3-Pentanol], for which the “229E Inhibition rate” value was 19%.
On to `OC[C@H]1O[C@@H](O[C@@H]2OC=C[C@H]3[C@H](O)[C@@H]4O[C@]4(CO)[C@@H]23)[C@H](O)[C@@H](O)[C@@H]1O` [Catalpol], for which the “229E Inhibition rate” value stood at 10.1%.
For `COc1cc2c3cc1Oc1c(OC)c(OC)cc4c1[C@@H](Cc1ccc(O)c(c1)Oc1ccc(cc1)C[C@@H]3N(C)CC2)N(C)CC4` [Berbamine], the “229E Inhibition rate” value (229E Inhibition rate, 24 h) came out at 5%.
Regarding `C=C1C=CC(C(C)C)CC1` (stereo not drawn) [β-Phellandrene], the “229E Inhibition rate” value is reported as 51.8%.
Turning to `CCCCCC(C)O` (stereo not drawn) [2-Heptanol], the “229E Inhibition rate” value is on record as 36.9%.
Turning to `O=c1c(O)c(-c2ccc(O)c(O)c2)oc2cc(O)ccc12` [Fisetin], the “229E Inhibition rate” value came out at 43.1%.
Regarding `CC1(C)CC[C@]2(C(=O)O)[C@H](O)C[C@]3(C)C(=CC[C@@H]4[C@@]5(C)C[C@H](O)[C@H](O)C(CO)(CO)[C@@H]5CC[C@]43C)[C@@H]2C1` [Platicodigenin], the “229E Inhibition rate” value came out at 5.1%.
`COc1cc2c(c(OC)c1OC)-c1c3cc4c(c1OC[C@@H](C)[C@@](C)(O)C(=O)O[C@@H]2[C@@](C)(O)[C@@H](C)C3)OCO4` [Gomisin D]: the “229E Inhibition rate” value amounted to 19.4%.
For the molecule `COc1ccc(CC2c3cc(OC)c(OC)cc3CCN2C)cc1OC` (racemic) [DL-Laudanosine], the “229E Inhibition rate” value worked out at 36.8%.
Take `CCCCOC(=O)/C=C\C(=O)OCCCC` [Dibutyl maleate]: the “229E Inhibition rate” value is 0%.
Regarding `O=c1oc2cc(O)ccc2c2cc(O)c(O)cc12` [Urolithin C], the “229E Inhibition rate” value is given as 16.1%.
Take `CC[C@@]1(O)C(=O)OCc2c1cc1n(c2=O)Cc2cc3c([N+](=O)[O-])cccc3nc2-1` [Rubitecan]: the “229E Inhibition rate” value stood at 5.6%.
Consider `CCCCCCC[C@H](O)CC(=O)CCc1ccc(O)c(OC)c1` [8-Gingerol], for which the “229E Inhibition rate” value was determined as 13.3%.
For the molecule `COc1ccc2ccc(=O)oc2c1` [Herniarin], the “229E Inhibition rate” value is reported as 11.6%.
Still for that read-out and setting: with `OC[C@H]1O[C@@H]2O[C@H]3[C@H](O)[C@@H](O)[C@@H](O[C@H]4[C@H](O)[C@@H](O)[C@@H](O[C@H]5[C@H](O)[C@@H](O)[C@@H](O[C@H]6[C@H](O)[C@@H](O)[C@@H](O[C@H]7[C@H](O)[C@@H](O)[C@@H](O[C@H]1[C@H](O)[C@H]2O)O[C@@H]7CO)O[C@@H]6CO)O[C@@H]5CO)O[C@@H]4CO)O[C@@H]3CO` [α-Cyclodextrin] the figure was 0%.
